According to US7199286B2, “Plant-derived novel pathogen and SAR-induction chemical induced promoters, and fragments thereof” (Syngenta Participations AG, priority 1999, dated 2007):
Some of these results come from one statement about several compounds together.

Test system: NI16 RNA
Experiment: Induction of NI16 mRNA by SA and BTH spray, RNA blot hybridization
Assay type: in vivo, Arabidopsis
Details: 4 week old WS-O plants sprayed with 5 mM SA or 300 μm BTH; within 15 minutes
Method: RNA is prepared from 4 week old Wassilewskija (WS—O) plants, that are either sprayed with water, a 5 mM solution of sodium salicylate (SA), or a 300 μm solution of benzo-(1,2,3)-thiadiazole-7-carbothioic acid S-methyl ester (BTH). […] RNA extractions and RNA blot hybridizations are performed as described previously by Ausubel et al. (1987). NI16 RNA is induced 5–10 fold within 15 minutes of SA or BTH induction and reaches a peak of approximately 50 fold induction within 2 hours of SA treatment and 25 fold induction with BTH treatment.

Structure (SMILES) | NI16 RNA induction
CSC(=O)c1cccc2nnsc12 [BTH, benzo(1,2,3)thiadiazole-7-carbothioic acid S-methyl ester] | 5–10 fold
O=C(O)c1ccccc1O [SA, salicylic acid] | 5–10 fold
